# Experimental data from patent publication US12584173B2, “Methods for disease treatment and drug discovery” (The Scripps Research Institute, priority 2018, dated 2026).
# For at least one compound, name, drawing or mass did not settle the structure.
# How the values were obtained:
# NPC1 [1] = assay: cholesterol storage in LE/LY by filipin staining, high content image analysis; type: cell-based, human; details: in all domains
# From the text: NPC1 is composed of multiple domains that harbor the different variants contributing to disease. Given the heterozygous allelic composition of most NPC1 primary fibroblasts that compromise interpretation of the impact of a specific allele on disease progression, we silenced NPC1 expression with shRNA to generate stable null cell lines. These null cell lines were transiently transfected with a sparse collection of plasmids that each harbor one of 48 distinct NPC1 disease-associated variants in NPC1 distributed among the various NPC1 domains. […] We binned this sparse collection of variants into 4 functional classes (Cass I-IV). Class I variants lack polypeptide expression in response to non-sense and/or splicing (truncation) mutations (null), Class II missense variants are largely ER retained (defined as <0.2 TrIdx), Class III missense variants show an intermediate level of trafficking (defined as 0.2 to 0.5 TrIdx) and Class IV missense variants have a level of trafficking >0.5 TrIdx indicating significant export from the ER. […] The impact of cholesterol (ChoI) storage in the LE/LY for each of these variants was measured using automated high content screening image analysis based on filipin staining.
# Each of the 48 NPC1 variants was examined for the impact of SAHA on both TrIdx and ChoI in the LE/LY. […]
# NPC1 [2] = details: cited from earlier work
structure (smiles),measurement,setting,value
"Cc1[nH]c2ccccc2c1CCNCc1ccc(/C=C/C(=O)NO)cc1 [LBH589, Panobinostat]",cholesterol homeostasis of NPC1 variants,NPC1 [1],significantly restored
same,"correction of the I1061T phenotype (protein stabilized for export to LE/LY, improved cholesterol homeostasis)",NPC1 [2],correct the I1061T phenotype
same,correction of I1061T,NPC1 [2]; previously shown,correct I1061T at nM concentrations
